We go through 28 compounds from PubChem BioAssay AID278 (DTP/NCI, 2004).

In this assay the test system is nude mice, A549 intrarenal xenograft, tumor weight change. Nature of the assay: NCI In Vivo Anticancer Drug Screen. Data for tumor model A549 Human Adenocarcinoma of Lung with characteristics of Type II Alveolar Epithelial cells (intrarenal inoculation) in NU/NU BALB/C (nude) mice. Conditions: T/C endpoint: mean tumor weight change, schedule: Q04DX003 (ip), higher T/C = larger tumour; for T/C: evaluated on day 12. Here is the method:
The antitumor activity of compounds was measured in mice bearing transplantable tumors. Survival or tumor size were measured and the results are expressed as the measurement made in the treated group (T) divided by the measurement made in the vehicle treated control group (C). The tumor model used in this assay is A549 Human Adenocarcinoma of Lung with characteristics of Type II Alveolar Epithelial cells (intrarenal inoculation) in NU/NU BALB/C (nude) mice

The mark [1] stands for this setting: dose: 600.0 mg/kg/injection, vehicle: Klucel (hydroxypropylcellulose) (HPC).
[2] abbreviates: dose: 1200.0 mg/kg/injection, vehicle: Klucel (hydroxypropylcellulose) (HPC).
Setting [3] is: dose: 50.0 mg/kg/injection, vehicle: saline with Tween-80.
The mark [4] stands for this setting: dose: 600.0 mg/kg/injection, vehicle: saline with Tween-80.
The mark [5] stands for this setting: dose: 1200.0 mg/kg/injection, vehicle: saline with Tween-80.
[6] abbreviates: dose: 100.0 mg/kg/injection, vehicle: saline with Tween-80.
Setting [7] is: dose: 200.0 mg/kg/injection, vehicle: saline with Tween-80.

The list is a part of this screen's results and no random one: it is rich in T/C values a quarter to a half above the control, in often repeated tests (any T/C) and in doses without a T/C. Other doses and runs of a compound stand elsewhere. T/C gives the treated animals as a percentage of the vehicle group. Schedule codes are those of the source, read here as Q, the interval in days (D) or hours (H), X, the number of doses. Some values lie below zero, which means that the treated tumours became smaller. Some doses were run more than once; the results are listed from low to high. Some T/C values are followed by the survivors on the day toxicity was checked, most often the fifth; without a count, all were alive then. Some doses have a count of surviving animals in place of a T/C: the source files T/C as zero there, which appears to mark a toxic dose or a test without result, not a measured value. Counts of survivors are from the toxicity check (mostly the fifth day) where no day follows; animals may have died later.

As for `C=C(Cl)C(=NC(C)(C)C)Nc1ccccc1C`, the survivor count was 3 of 6 on day 12 (dose: 40.0 mg/kg/injection, vehicle: Klucel + Tween-80); 0 of 6 on day 12 (dose: 75.0 mg/kg/injection, vehicle: Klucel + Tween-80); 0 of 6 on day 12 (dose: 80.0 mg/kg/injection, vehicle: Klucel + Tween-80); 0 of 6 on day 12 (dose: 150.0 mg/kg/injection, vehicle: Klucel + Tween-80); 0 of 6 on day 12 (dose: 300.0 mg/kg/injection, vehicle: Klucel + Tween-80); 0 of 6 on day 12 (dose: 600.0 mg/kg/injection, vehicle: Klucel + Tween-80).

As to `O=C1CNC(=O)N1CN1CCOCC1`, the survivor count under setting [1] is on record as 2 of 6 on day 12 and the survivor count under setting [2] is 0 of 6 on day 12.

In the case of `C/C=C/CC(C)C(O)C1C(=O)NC(CC)C(=O)N(C)CC(=O)N(C)C(CC(C)C)C(=O)NC(C(C)C)C(=O)N(C)C(CC(C)C)C(=O)NC(C)C(=O)NC(C)C(=O)N(C)C(CC(C)C)C(=O)N(C)C(CC(C)C)C(=O)N(C)C(C(C)C)C(=O)N1C` (stereo not drawn), the survivor count (dose: 300.0 mg/kg/injection, vehicle: Klucel (hydroxypropylcellulose) (HPC)) is 3 of 6 on day 12 and the survivor count under setting [1] is 2 of 5 on day 12.

Turning to `CC(=O)/C(=C\c1ccc(Cl)c(Cl)c1)C(=O)CCN(C)C`, the survivor count (dose: 100.0 mg/kg/injection, vehicle: saline) is recorded as 0 of 6 on day 12.

On to `CC[C@@]1(O)C(=O)OCc2c1cc1n(c2=O)Cc2cc3c(N)cccc3nc2-1`, for which the survivor count is 1 of 6 on day 12 (dose: 4.0 mg/kg/injection, vehicle: saline with Tween-80); 0 of 6 on day 12 (dose: 6.67 mg/kg/injection, vehicle: saline with Tween-80); 0 of 6 on day 12 (dose: 8.0 mg/kg/injection, vehicle: saline with Tween-80).

On to `CC(/C=C/C=C/C=C/C=C/C=C/C(O)=C1/C(=O)C(CCC(=O)O)N(C)C1=O)=C\C(C)C(OC1CC(O)C(O)C(C)O1)C(C)C` (stereo not drawn), for which the survivor count by setting is: (dose: 208.0 mg/kg/injection, vehicle: water) 0 of 6 on day 12; (dose: 347.0 mg/kg/injection, vehicle: water) 0 of 6 on day 12.

As to `CCC(NC(N)=O)C(CC)NC(N)=O` (stereo not drawn), under setting [3], the survivor count is on record as 3 of 6 on day 12.

On to `NC(Cc1ccccc1)C(=O)OCN1C(=O)C2C3C=CC(C2C1=O)C1C2C(=O)N(COC(=O)C(N)Cc4ccccc4)C(=O)C2C31` (stereo not drawn), for which the survivor count (dose: 400.0 mg/kg/injection, vehicle: other) is reported as 0 of 6 on day 12.

Regarding `O=C(NC(Cc1ccc(I)cc1)C(=O)O)c1ccc(Br)cc1` (stereo not drawn), the survivor count reads like this: (dose: 300.0 mg/kg/injection, vehicle: other) 0 of 6 on day 12; (dose: 300.0 mg/kg/injection, vehicle: sodium bicarbonate) 2 of 6 on day 12.

As for `CN(C)CCNc1ccc(CO)c2sc3ccc(O)cc3c(=O)c12`, the survivor count was 0 of 6 on day 12 (dose: 300.0 mg/kg/injection, vehicle: saline with Tween-80) and 0 of 6 on day 12 under setting [4].

On to `C=C(c1ccc(OC)c(OC)c1)c1nccc2cc(OC)c(OC)cc12`, for which the survivor count runs as follows: under setting [1], 2 of 6 on day 12; under setting [2], 0 of 6 on day 12.

For the compound `CCOC(=O)c1ccc(NN=NCCF)cc1`, the survivor count (dose: 600.0 mg/kg/injection, vehicle: distilled water + Tween-80 + alcohol) is on record as 3 of 5 on day 12.

Take `Nc1ccc2ccc(NS(=O)(=O)N3CCCCC3)cc2c1`: under setting [5], the survivor count is recorded as 2 of 6 on day 12.

`COC1=C(C)C(=O)C2=C(C1=O)C(CO)N1C(C#N)C3CC4C(C1C2N1CCOC41)N3C` (stereo not drawn): the survivor count (dose: 5.0 mg/kg/injection, vehicle: saline + alcohol) is listed as 0 of 6 on day 12 and the survivor count (dose: 10.0 mg/kg/injection, vehicle: saline + alcohol) is recorded as 0 of 6 on day 12.

For `O=[N+]([O-])c1ccc(N(CCO)CCO)c2c1no[n+]2[O-]`, under setting [6], the survivor count is reported as 1 of 6 on day 12.

Regarding `[NH-]C(CCC(N)=O)C(=O)O.[NH-]C(CCC(N)=O)C(=O)O.[Zn+2]` (stereo not drawn), the survivor count under setting [7] is recorded as 0 of 6 on day 12.

With `CCN(CC)c1ccc2[nH]c3c(C(N)=O)cc(=O)c(=O)c=3oc2c1`, the survivor count is reported as 0 of 6 on day 12 under setting [4] and 0 of 6 on day 12 under setting [5].

With `CC(CNC(=O)C12CC3CC(CC(C3)C1)C2)NC(=O)C12CC3CC(CC(C3)C1)C2` (stereo not drawn), the T/C is, setting by setting: (dose: 150.0 mg/kg/injection, vehicle: DMSO) 144 % of control; (dose: 600.0 mg/kg/injection, vehicle: DMSO) 135 % of control; (dose: 1200.0 mg/kg/injection, vehicle: DMSO) 126 % of control.

For the compound `CC(C)(C)NC(C1=CC(C)(C)c2ccccc2C1=O)c1ccccc1` (stereo not drawn), the T/C (dose: 50.0 mg/kg/injection, vehicle: Klucel (hydroxypropylcellulose) (HPC)) was 125 % of control. Further, for the setting “dose: 400.0 mg/kg/injection, vehicle: Klucel (hydroxypropylcellulose) (HPC)”, the survivor count is 1 of 6 on day 12.

As to `S=c1sc2ccccc2n1CN1CCOCC1`, under setting [5], the survivor count was 1 of 6 on day 12.

For `N[C@@H](Cc1ccc(N(CCCl)CCCl)cc1)C(=O)O`, the T/C (dose: 4.0 mg/kg/injection, vehicle: saline) is given as -24, -2, 22, 27 % of control; the T/C (dose: 6.0 mg/kg/injection, vehicle: saline) is -43, -30, 12, 24 % of control; the T/C (dose: 9.0 mg/kg/injection, vehicle: saline) is -52 [5 of 6 alive on day 12], -13, 8, 11 % of control.

In the case of `Nc1n[nH]c2ccccc12`, the survivor count under setting [5] is 0 of 6 on day 12.

In the case of `C[n+]1c(-c2ccc(NC(=O)c3ccc(C(=O)Nc4ccc(-c5cn6ccccc6[n+]5C)cc4)cc3)cc2)cn2ccccc21`, the survivor count runs as follows: under setting [3], 2 of 6 on day 12; under setting [6], 0 of 6 on day 12; under setting [7], 0 of 6 on day 12.

Take `ClC1(Cl)Cc2ccccc21`: the survivor count (dose: 400.0 mg/kg/injection, vehicle: saline with Tween-80) is 3 of 6 on day 12 and the survivor count (dose: 800.0 mg/kg/injection, vehicle: saline with Tween-80) is listed as 0 of 6 on day 12.

For the compound `Oc1c(Cl)cc(Cl)cc1C=NCCSc1ccc(Cl)cc1`, the survivor count under setting [2] is on record as 2 of 6 on day 12.

For the compound `NC(=S=O)C(N)=S=O`, where the note is “dose: 1000.0 mg/kg/injection, vehicle: saline with Tween-80”, the survivor count is reported as 2 of 6 on day 12.

As for `COC(=O)NC1C(C)OC(OC2C/C=C(/C)C3C=CC4C(OC5CC(OC6CC(OC7CC(O)C(O)C(C)O7)C(OC7CC(O)C(OC)C(C)O7)C(C)O6)C(O)C(C)O5)C(C)CC(C)C4C3(C)/C(O)=C3\C(=O)OC4(CC(C)C(CO)=CC4/C=C\2C)C3=O)CC1(C)[N+](=O)[O-]` (stereo not drawn), the survivor count is 1 of 6 on day 12 (dose: 150.0 mg/kg/injection, vehicle: water); 0 of 6 on day 12 (dose: 300.0 mg/kg/injection, vehicle: water); 0 of 6 on day 12 (dose: 600.0 mg/kg/injection, vehicle: water).

`O=C(Nc1cc(Cl)ccc1C(=O)O)c1cccc(C[n+]2ccccc2)c1`: under setting [5], the survivor count is 1 of 6 on day 12.
